PubChem BioAssay AID504808 – Drosophila RNAi Screening Center | 2011
The deposit covers about 21,000 reagents; shown is an unselected part of those with a known target gene and a result. In the full data, 18 (0.084%) got an active call. 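Raw counts without plate normalisation, one of two replicates; the ratio scores behind the calls were not deposited.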 A number with no mark means an inactive call. A plus sign joins genes that one reagent is predicted to hit. Reagent sequences are not shown. The record does not give: the amount of reagent, the time to read-out.

Screen: 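Genes whose loss lifts activity of an E2F-responsive reporter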 (primary screen)
Cell system: Drosophila S2 cells
Reagent: long dsRNA against Drosophila genes
Measurement: 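Dual luciferase plate measurements; E2F-specific signal taken as firefly over Renilla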
Scale: E2F firefly: higher = more E2F reporter activity; Renilla normaliser: higher = more normaliser reporter signal
Hit rule: 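a knock-down counted as active when the firefly/Renilla E2F signal rose above 50%, a threshold chosen arbitrarily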

Target gene	PubChem SID	E2F firefly, rep 1	Renilla normaliser, rep 1
Cbp80 (GeneID 44409)	SID104198242	8342	792
pygo (GeneID 43718)	SID104194114	1335	996
Orco (GeneID 40650)	SID104192150	1.36e5	6024
MED30 (GeneID 38078)	SID104188308	74811	3271
Tango8 (GeneID 50210)	SID104186266	1.36e5	4846
Tsf2 (GeneID 39435)	SID104189543	78525	3506
CG15399 (GeneID 33472)	SID104180205	1.73e5	6022
Kah (GeneID 38072)	SID104187679	1.49e5	4573
Kah (GeneID 38072)	SID104188307	86142	4155
pbl (GeneID 38879)	SID104191173	64873	2847
CG34338 (GeneID 5740687)	SID104197327	78096	2786
lsn (GeneID 42572)	SID104195873	1.22e5	6852
CG42566 (GeneID 8674120)	SID104183741	1.25e5	4725
ova (GeneID 34362)	SID104182671	86752	3435
CG17122 (GeneID 40226)	SID104190037	1.44e5	6485
Vhl (GeneID 53433)	SID104187508	1.01e5	4255
CG4676 (GeneID 36465)	SID104186671	90076	3978
CG4842 (GeneID 39817)	SID104190245	1.49e5	6043
CG18605 (GeneID 37189)	SID104186564	1.46e5	4881
Myo28B1 (GeneID 53515)	SID104183167	1.68e5	5320
CG4714 (GeneID 36470)	SID104186675	2869	243
stx (GeneID 32005)	SID104198234	90858	4005
stx (GeneID 32005)	SID104198235	89851	4296
lncRNA:CR32661 (GeneID 3772605)	SID104199586	1.51e5	6726
scramb1 (GeneID 326186)	SID104189516	1.23e5	6759
scramb1 (GeneID 326186)	SID104190459	1.19e5	6136
scramb1 (GeneID 326186)	SID104190460	1.20e5	6342
mag (GeneID 40267)	SID104191579	85071	3624
CG2201 (GeneID 35417)	SID104183513	78281	4456
CG15482 (GeneID 34717)	SID104182284	1.03e5	4217
rictor (GeneID 32919)	SID104199863	1.35e5	6713
CG33234 (GeneID 2769006)	SID104187786	1.29e5	4691
CG5815 (GeneID 43266)	SID104193927	1.13e5	5963
CG9166 (GeneID 38161)	SID104187634	95070	4773
aln (GeneID 2768997)	SID104188032	79662	4090
CG32945 (GeneID 318261)	SID104191806	98779	4119
Sol1 (GeneID 41513)	SID104195055	1.57e5	7094
Sol1 (GeneID 41513)	SID104195063	1.48e5	6664
Sol1 (GeneID 41513)	SID104195473	1.54e5	6853
Cpr5C (GeneID 31510)	SID104198132	89082	5132
cN-IIIB (GeneID 37875)	SID104184151	82787	3968
asRNA:CR42547 + CG15674	SID104184056	1.07e5	3705
Faa (GeneID 45577)	SID104188243	70236	3331
CG9877 (GeneID 37666)	SID104184379	99533	4144
List (GeneID 37157)	SID104186312	1.40e5	5736
CG6421 (GeneID 46813)	SID104187212	1.35e5	4700
ste24b (GeneID 36907)	SID104187107	1.43e5	4815
CG16953 (GeneID 42437)	SID104194959	62932	3938
Gyc32E (GeneID 34553)	SID104180946	1.26e5	6829
CG15715 (GeneID 39726)	SID104190008	1.56e5	6452
meigo (GeneID 42510)	SID104195669	1.17e5	6575
CG5323 (GeneID 37137)	SID104186721	1.50e5	5271
ACXC (GeneID 34689)	SID104180638	94482	4458
Slmap (GeneID 3355127)	SID104183591	92452	4179
CrebB (GeneID 32817)	SID104200024	1.28e5	5309
CG34315 + Orc3	SID104187434	2993	191
Cpr64Ab (GeneID 38509)	SID104188253	1.11e5	4223
Pex13 (GeneID 36462)	SID104186669	2792	194
bai (GeneID 42996)	SID104194180	1.09e5	6753
Alp6 (GeneID 35981)	SID104186502	3200	205
CG2955 (GeneID 33622)	SID104180344	85971	3615
Pdhb (GeneID 43437)	SID104194212	1941	1028
Klp67A + CG34456	SID104190212	1.16e5	5000
CG31183 (GeneID 41927)	SID104194195	1.18e5	6400
CG31183 (GeneID 41927)	SID104195346	75079	3491
RpL3 + CG6693	SID104195889	66791	3677
eIF3d1 (GeneID 42789)	SID104196730	61615	4989
GstD1 (GeneID 41503)	SID104196475	1.42e5	6617
Or67b (GeneID 39120)	SID104191033	91413	4901
Aptx (GeneID 42322)	SID104195560	1.40e5	6790
superdeath (GeneID 43444)	SID104194660	48901	3575
CG15387 (GeneID 33403)	SID104180193	1.83e5	6955
CG12693 (GeneID 31375)	SID104197674	1.14e5	5571
mod(mdg4) + pre-mod(mdg4)-Z + pre-mod(mdg4)-T	SID104193269	79210	2192
mod(mdg4) + pre-mod(mdg4)-Z + pre-mod(mdg4)-T	SID104196793	1.12e5	7239
Aprt (GeneID 48224)	SID104187931	1.02e5	4164
Alp9 (GeneID 38633)	SID104190278	76409	3422
p (GeneID 41025)	SID104196352	1.33e5	6034
Rpn13R (GeneID 31433)	SID104198196	46325	3391
CG40486 (GeneID 3355162)	SID104200411	1.52e5	5212
CG10750 (GeneID 35206)	SID104181897	81452	3417
CG15864 (GeneID 50001)	SID104194914	1.36e5	6318
Yp3 (GeneID 32339)	SID104200094	1.70e5	7195
PolQ (GeneID 41571)	SID104196798	1.24e5	5349
